Results from PubChem BioAssay AID1347426 (Functional Genomics Laboratory (NCATS/FGL), 2020).
The campaign covered roughly 31,000 sequences. About 1,400 (4.5%) were called active.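 Rule for the calls: active = median seed-adjusted z-score above 1 or below -1; inactive = the rest.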 The list shows a part of the results.

Assay: Novel Modifiers of Survival Motor Neuron (SMN) Protein: Gene Identification via Genome-wide siRNA Screen;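 note: luminescence tracks full-length SMN protein made from the SMN2 reporter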
Conditions: HEK293T SMN2-luciferase reporter, siRNA knockdown, 72 h; actives lie on both sides
Method in brief: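 Steps: spot 1 pmol siRNA, add Lipofectamine RNAiMax in serum-free DMEM, seed HEK293T SMN2–luciferase reporter cells; incubate 72 h at 37 °C; add ONE-Glo; normalize luminescence to control siRNA, log10, MAD. Candidates: |MAD| > 1.0.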

| Sequence | median seed-adjusted z-score |
| --- | --- |
| CUAUGAGACUGACAACUAUTT against FAAH | inactive: 0.373 |
| AGGCCCUAGUGCUCAGAUATT against MMS19 | inactive: 0.0142 |
| GCACCUUUAGGCGAAGGAATT against SENP6 | active: -1.03 |
| CCGUGAUCGUGAAGCUAGATT against PKD2 | inactive: 0.219 |
| GCUGCGGUGUGACAUCAGATT against RNH1 | inactive: 0.55 |
| GCCUUAUAAAGGGAGAAAATT against OXCT1 | inactive: 0.133 |
| GCAUCAACCAUCUCUGAGATT against VILL | inactive: 0.518 |
| GGUUGUUCCUCUAGACAAUTT against PEX1 | inactive: 0.227 |
| CCAUCAGCAUAGUACUGCATT against ZBTB1 | inactive: 0.3 |
| GAAACGGAUUUCUAUGAAATT against MELK | inactive: -0.195 |
| CCUUCCACCGGUUUCCGUUTT against THAP3 | inactive: 0.269 |
| CUAUGCAAGUGCCUAGCUATT against ICAM4 | inactive: -0.338 |
| GCUUCGAUGUUCACAAGUATT against HOOK1 | inactive: 0.202 |
| GGAUGUAGCUGUCAACUGUTT against HSD17B10 | inactive: -0.355 |
| CACCUCUUCUAUUAAUUCATT against PCDHGA11 | inactive: 0.0518 |
| GUGUAUGAACUGACCAAGATT against SMAD9 | inactive: -0.492 |
| GCAAGAUGCAUGCUCAUGATT against ZNF142 | inactive: 0.111 |
| GGAAGCUCACUGCCAUGUCTT against CBX2 | inactive: -0.215 |
| AUUUAGACAUUGGAACUAATT against PCDHB2 | inactive: 0 |
| CGAGAUCUCAAGUCUAACATT against ARAF | inactive: 0.535 |
| GUCCGGCUCUUUCCACUAATT against EIF2B1 | inactive: 0.206 |
| GGAUUGAUCUGACAUCAAATT against EPYC | inactive: 0.00264 |

| Sequence | median seed-adjusted z-score |
| --- | --- |
| CCCAGGUUCUUGAUCGGAUTT against CHRNA5 | inactive: 0 |
| GGUACCUUUUUGAACUGUUTT against CLCN3 | inactive: -0.0801 |
| CCAAAUGAAUCAAGCAGAATT against LCORL | inactive: -0.0458 |
| GCAUUGUGAUCGAGGACAATT against HCN2 | inactive: 0 |
| CGCCUUUCAUUUUUGCUGATT against TGM1 | inactive: -0.286 |
| AGAAAUACCAGUGCAAAAATT against SNAI2 | inactive: 0 |
| CCCAAUCAGUAAGAACCAATT against CEACAM1 | inactive: -0.211 |
| CAGUAACAAUGGAAAAAGUTT against ZNF302 | inactive: 0.498 |
| GGAUGGGCAUGAAAGUCCATT against COPG2 | inactive: -0.564 |
| GCGACUAUUUUGAAUACCATT against TLK1 | inactive: -0.0133 |
| GGAUGUUACCAGGACAUUUTT against TNFAIP3 | inactive: 0.11 |
| CGAAUGACAAGUGAUCUAATT against MDH1B | active: -1.13 |
| CCAGAGGAAUUGACUACUATT against SLC12A4 | inactive: -0.0667 |
| GCUCGACACUAUCAGGGAUTT against PSMD8 | inactive: 0.0952 |
| CAAACGGCCUUACCAGAAATT against EAF1 | inactive: -0.931 |
| CCACUACAAAGGAAGUAAATT against ZNF385B | inactive: 0.446 |
| ACAAUGAACUGGAUCAACATT against TBX20 | inactive: 0.00303 |
| GGAAUUCCCUGUAAGGAGATT against ADAM29 | inactive: 0.904 |
| GCUCUUUUCACAAAUCUUUTT against TUBGCP6 | inactive: 0 |
| GCAGAGAACUGUGACUCCATT against DRD5 | inactive: -0.18 |
| GGAAGAUGCUGAAAUCAAATT against TSKS | inactive: -0.0409 |
| CGACAACUACUGUGAAAAATT against DUSP8 | inactive: -0.0326 |

An excerpt of these results, with tabs.
Sequence	median seed-adjusted z-score
CAGUAACAAUGGAAAAAGUTT against ZNF302	inactive: 0.498
GGAUGGGCAUGAAAGUCCATT against COPG2	inactive: -0.564
GCGACUAUUUUGAAUACCATT against TLK1	inactive: -0.0133
GGAUGUUACCAGGACAUUUTT against TNFAIP3	inactive: 0.11

Next part.

| Sequence | median seed-adjusted z-score |
| --- | --- |
| CUACCUCAUUAUUUAGCAATT against SLC7A13 | inactive: 0.121 |
| CCGUCAUGCACUUACCUUUTT against ADCY9 | inactive: 0.269 |
| GGAAGUUCGCAGAAAAGUATT against PDIA5 | inactive: 0.989 |
| GGAUGUGCAGGCUACCAAATT against LIPT1 | inactive: 0.552 |
| CCAGGGUCAUUGUGGAUUUTT against SFXN4 | inactive: -0.174 |
| CCAUUGCCUUAUUCGAAAUTT against SPZ1 | inactive: 0.535 |
| CAACUGGAUUACUAGCAUUTT against ADD3 | inactive: 0.0741 |
| CGGGAUGUAUUACUCCUUATT against KCNC1 | inactive: 0.73 |
| CUGUGAUGCAUGAUUCUAATT against HERC6 | inactive: 0.324 |
| GGAAUGGACUCAGUGAUCATT against PFTK1 | inactive: 0.088 |
| CGGAUGUCAUCGUCACAGATT against ALDH18A1 | inactive: 0.116 |
| AGCGCCUCCUGUUUCGACATT against ZNF579 | inactive: -0.0604 |
| GUAAAAGCCCUAAAACGAUTT against ARHGEF6 | inactive: -0.0593 |
| CAGUCGACUUAAACAACCATT against USP33 | inactive: -0.63 |
| GGACUUUGCCUACUCCUCATT against KLHL25 | inactive: -0.0146 |
| GCAAUUGAAGUGGUUGAUATT against UBE2Q2 | inactive: 0.146 |
| GGAAUUCGAGGAUUAUGCATT against HIAT1 | inactive: -0.0612 |
| GGACAAAGUCUUAACAAAATT against SLC30A10 | inactive: 0.523 |
| GCUAAUCCCUCUGAGAAAATT against MS4A1 | inactive: 0.414 |
| GAGCGAGUCUGUAAUCUGATT against ALDH6A1 | inactive: -0.0908 |
| CAAGGUCUGUAGUCAAAAUTT against ZNF677 | inactive: -0.441 |
| GGAUGAUUUUGCGAAUAAUTT against CAPN7 | inactive: 0.125 |

| Sequence | median seed-adjusted z-score |
| --- | --- |
| GGAUAUAUUUGGUCAUGGATT against CPA3 | inactive: 0.192 |
| CCGGCUACCUAGUGACUAATT against PCDHGB6 | inactive: 0.34 |
| GCAAAACCCUGGAAGGAUATT against KCTD11 | inactive: 0.374 |
| CACUUGAUCUCUUAACCAUTT against 10-Sep | inactive: 0.571 |
| GAUCGAUACUUGAUAAUUATT against SUCNR1 | inactive: 0 |
| GGCAAUAAAAUCUCCAUUUTT against KLRC4 | inactive: -0.218 |
| GAGUGGAAAUUUCACCUAUTT against IFNAR2 | inactive: -0.219 |
| GAUUCUAGUUGGUGUGAAATT against MRGPRX4 | inactive: -0.113 |
| CAACCUAAAAAGAACUCGATT against FNBP1 | inactive: -0.168 |
| CGAGGAGCUGAAUUCCCAATT against SLC9A3R1 | inactive: -0.418 |
| GCCUUGCGCUAAAUCUCGATT against NSD1 | inactive: -0.372 |
| GAAUUCAUCUUCUGCUAUATT against GPR110 | inactive: 0.0158 |
| GGUGAUUGUUCAUUUGACATT against ERAS | inactive: 0.289 |
| CGGAAUACUCUGACUCGAATT against GLT8D2 | inactive: -0.619 |
| AGACAAUGAUCAUAGACAATT against IDH3B | inactive: -0.642 |
| GAGUAAAUAUCUCAGAUGATT against CHP | inactive: -0.35 |
| GACUUCUACUUUGAGAAAATT against NDST1 | inactive: -0.0763 |
| GACGAUAUCUAAUAUUACATT against KPNA1 | inactive: -0.0231 |
| GACUAGCAGGACUCCCUUUTT against VARS | inactive: 0.237 |
| GCUGUGCUCAAAACUGUCATT against PILRB | inactive: 0.0351 |
| GGCUCAGGGUGAAUUACAATT against PLA2G2D | inactive: 0.361 |
| CGUGGAGAAGGGUACUCAATT against SERPINA1 | inactive: 0.00292 |

| Sequence | median seed-adjusted z-score |
| --- | --- |
| GGGAGAAGGCUCAAGUGUATT against SLC23A3 | inactive: -0.254 |
| GACCUAGAAAAGAAACGAATT against ANK2 | inactive: 0 |
| GCACUAUGCUGGAUACAAATT against PGAP1 | inactive: -0.272 |
| AAUAUGAACUGGAGAUGUATT against GTPBP5 | inactive: 0.0354 |
| CAUUCUUUUGAGCAGGUUATT against ACSL6 | inactive: -0.0934 |
| CCCUCGAGUUGGAAAUAAATT against CLDN9 | inactive: 0.398 |
| UGAUCAUUUAAGACACUAATT against DIO1 | inactive: 0.0467 |
| GAACAGGGAUGAAAGAAGATT against ZC3H11A | inactive: -0.137 |
| AGUUUUCUGUAUGCAGUUATT against RBM23 | inactive: 0.14 |
| CCCAUUAAGAUUAAUCUAATT against EIF2S1 | inactive: -0.175 |
| CAUCUACAAAUGGUAUAAATT against AGA | inactive: -0.0433 |
| CCGAAGCAGCUGAUCAGAATT against AKAP7 | inactive: 0.37 |
| GGCUCUUACAGACAGCUUUTT against SRI | inactive: 0.994 |
| GAAUAAGCAAGUCUUCUUUTT against ANG | inactive: -0.481 |
| UGGCUGGAGUGGUCAAUAATT against MFSD3 | inactive: -0.0706 |
| GGAGUCGAGCAGUCCUUUATT against KCNH8 | inactive: 0 |
| CGGCUACUAUGGUGCUCUATT against ITGB7 | inactive: 0.443 |
| GGAGACGUGGAGUACCUUATT against HDAC5 | inactive: -0.342 |
| GUAACAACAAAUACUCAUATT against KCTD10 | inactive: -0.506 |

Look-ups from the list.
median seed-adjusted z-score, CGACAACUACUGUGAAAAATT against DUSP8 reads inactive: -0.0326
median seed-adjusted z-score, GGAAUUCCCUGUAAGGAGATT against ADAM29 reads inactive: 0.904
